Article PMC12650596
Results are given in words; binding and its absence hold for the method and conditions named. In cells and extracts the contact can be indirect. Here binding means that the protein was enriched with, or labelled near, the bait; the list need not be complete. Where a sequence is shown, tags or fusion partners need not be part of it.

Sequences of proteins named here, by UniProt entry; tags and fusion partners are left off. Residues count along the entry.
UniProt P17301, residues 30-1181: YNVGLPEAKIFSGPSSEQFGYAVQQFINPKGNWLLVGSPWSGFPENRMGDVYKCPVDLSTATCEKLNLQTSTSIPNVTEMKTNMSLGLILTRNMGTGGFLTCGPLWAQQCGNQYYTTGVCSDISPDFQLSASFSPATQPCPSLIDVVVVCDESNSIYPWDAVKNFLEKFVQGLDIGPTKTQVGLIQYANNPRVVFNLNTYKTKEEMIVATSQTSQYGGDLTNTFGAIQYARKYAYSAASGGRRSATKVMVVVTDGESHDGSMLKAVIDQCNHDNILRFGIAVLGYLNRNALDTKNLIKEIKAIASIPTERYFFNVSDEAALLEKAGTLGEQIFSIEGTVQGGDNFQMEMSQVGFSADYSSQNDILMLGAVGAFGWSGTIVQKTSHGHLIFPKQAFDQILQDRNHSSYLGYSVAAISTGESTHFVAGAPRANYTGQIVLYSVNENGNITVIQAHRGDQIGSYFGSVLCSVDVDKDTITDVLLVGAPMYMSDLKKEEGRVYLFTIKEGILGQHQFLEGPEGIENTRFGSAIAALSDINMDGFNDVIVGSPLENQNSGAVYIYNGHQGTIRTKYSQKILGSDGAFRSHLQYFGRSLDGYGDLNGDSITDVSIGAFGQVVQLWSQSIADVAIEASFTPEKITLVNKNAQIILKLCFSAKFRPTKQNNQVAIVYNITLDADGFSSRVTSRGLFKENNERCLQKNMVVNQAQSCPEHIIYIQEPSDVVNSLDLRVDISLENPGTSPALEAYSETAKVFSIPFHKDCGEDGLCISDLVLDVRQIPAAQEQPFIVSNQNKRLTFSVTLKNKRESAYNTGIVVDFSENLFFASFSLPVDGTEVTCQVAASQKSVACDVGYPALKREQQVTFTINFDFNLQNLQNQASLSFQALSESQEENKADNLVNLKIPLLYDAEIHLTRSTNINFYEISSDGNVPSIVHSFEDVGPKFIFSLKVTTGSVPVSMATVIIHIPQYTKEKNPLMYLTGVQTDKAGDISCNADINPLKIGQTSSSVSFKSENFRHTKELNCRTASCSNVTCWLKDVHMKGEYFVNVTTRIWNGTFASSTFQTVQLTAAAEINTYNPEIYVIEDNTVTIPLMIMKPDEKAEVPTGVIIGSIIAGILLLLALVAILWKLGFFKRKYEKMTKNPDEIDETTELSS

T1: EGFP-hPMP22-BioID2 recombinant fusion protein (peripheral myelin protein 22) (human) (UniProt Q01453)
T1 sequence: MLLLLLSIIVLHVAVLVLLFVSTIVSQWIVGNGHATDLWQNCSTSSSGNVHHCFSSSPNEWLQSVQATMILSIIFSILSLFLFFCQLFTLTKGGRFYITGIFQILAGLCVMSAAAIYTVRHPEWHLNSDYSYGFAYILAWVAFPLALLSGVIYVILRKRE


Tests used:
[1] = target: T1, EGFP-hPMP22-BioID2 recombinant fusion protein (peripheral myelin protein 22) (human); assay: proximity labelling; BioID2 pull-downs (streptavidin beads) of the three cell lines cultured for 3 days, input and bound fractions on western blot with anti-ITGA2
[2] = target: T1, EGFP-hPMP22-BioID2 recombinant fusion protein (peripheral myelin protein 22) (human); assay: proximity labelling; BioID2 in live stably transfected human Schwann cells, 50 µM biotin for 3 days; RIPA extract, streptavidin Dynabeads pull-down of biotinylated proteins, trypsin digest, LC-MS/MS; compared with control-transfected (EGFP-BioID2) and untransfected CRL cells

| Molecule | binding [1] | binding [2] |
| --- | --- | --- |
| Integrin alpha-2 (ITGA2) (from UniProt P17301 30-1181) (receptor) | binds | binds |
| Phospholipid-transporting ATPase IC (ATP8B1) (protein, UniProt O43520 1-1251) MSTERDSETTFDEDSQPNDEVVPYSDDETEDELDDQGSAVEPEQNRVNREAEENREPFRKECTWQVKANDRKYHEQPHFMNTKFLCIKESKYANNAIKTYKYNAFTFIPMNLFEQFKRAANLYFLALLILQAVPQISTLAWYTTLVPLLVVLGVTAIKDLVDDVARHKMDKEINNRTCEVIKDGRFKVAKWKEIQVGDVIRLKKNDFVPADILLLSSSEPNSLCYVETAELDGETNLKFKMSLEITDQYLQREDTLATFDGFIECEEPNNRLDKFTGTLFWRNTSFPLDADKILLRGCVIRNTDFCHGLVIFAGADTKIMKNSGKTRFKRTKIDYLMNYMVYTIFVVLILLSAGLAIGHAYWEAQVGNSSWYLYDGEDDTPSYRGFLIFWGYIIVLNTMVPISLYVSVEVIRLGQSHFINWDLQMYYAEKDTPAKARTTTLNEQLGQIHYIFSDKTGTLTQNIMTFKKCCINGQIYGDHRDASQHNHNKIEQVDFSWNTYADGKLAFYDHYLIEQIQSGKEPEVRQFFFLLAVCHTVMVDRTDGQLNYQAASPDEGALVNAARNFGFAFLARTQNTITISELGTERTYNVLAILDFNSDRKRMSIIVRTPEGNIKLYCKGADTVIYERLHRMNPTKQETQDALDIFANETLRTLCLCYKEIEEKEFTEWNKKFMAASVASTNRDEALDKVYEEIEKDLILLGATAIEDKLQDGVPETISKLAKADIKIWVLTGDKKETAENIGFACELLTEDTTICYGEDINSLLHARMENQRNRGGVYAKFAPPVQESFFPPGGNRALIITGSWLNEILLEKKTKRNKILKLKFPRTEEERRMRTQSKRRLEAKKEQRQKNFVDLACECSAVICCRVTPKQKAMVVDLVKRYKKAITLAIGDGANDVNMIKTAHIGVGISGQEGMQAVMSSDYSFAQFRYLQRLLLVHGRWSYIRMCKFLRYFFYKNFAFTLVHFWYSFFNGYSAQTAYEDWFITLYNVLYTSLPVLLMGLLDQDVSDKLSLRFPGLYIVGQRDLLFNYKRFFVSLLHGVLTSMILFFIPLGAYLQTVGQDGEAPSDYQSFAVTIASALVITVNFQIGLDTSYWTFVNAFSIFGSIALYFGIMFDFHSAGIHVLFPSAFQFTGTASNALRQPYIWLTIILAVAVCLLPVVAIRFLSMTIWPSESDKIQKHRKRLKAEEQWQRRQQVFRRGVSTRRSAYAFSHQRGYADLISSGRSIRKKRSPLDAIVADGTAEYRRTGDS |  | binds |
